Measurements published in US20090142753A1, “Compositions and methods for detecting compounds to treat a neurological disorder” (Caritas St. Elizeth Medical Center of Boston, Inc., priority 2005, published 2009).
Some of these results come from one statement about several compounds together.

System: human DJ-1 promoter
Assay: DJ-1 promoter luciferase reporter assay in SH-SY5Y cells stably expressing −1000DJ-Luc
Assay type: cell-based
Conditions: 5 mM, 24 hours
Text: To develop a cell-based assay system where one can identify agents that transcriptionally activate DJ-1, a plasmid vector (−1000DJ-Luc) was made that expressed a luciferase reporter gene directed by the human DJ-1 promoter containing 1000 base pairs upstream and 65 base pairs downstream sequences (−1000 to +65) of the transcription initiation site (FIG. 1). A19 base pair sequence containing +46 to +65 of the DJ-1 gene was fused to the luciferase gene to generate the control plasmid (0DJLuc). A neomycin resistance gene was inserted into the vectors as a selection marker. Next, human dopaminergic SH-SY5Y neuroblastoma cells were transfected with either −1000DJLuc or 0DJLuc selected for stably transfected clones. A plasmid encoding β-galactosidase gene was co-transfected to serve as an internal control for luciferase expression.
To confirm the stable expression of the reporter genes and to evaluate these cells as devices for drug discovery, stably transfected SH-SY5Y cells were treated with increasing doses of H2O2. This agent has been reported to upregulate DJ-1. See for example Reference 21. […] Luciferase and β-galactosidase activities were then determined. […]
SH-SY5Y cells stably expressing −1000DJ-Luc were treated with increasing doses of TSA (FIG. 3A) or sodium butyrate (FIG. 3B) for 24 hours. Results were analyzed as described in FIG. 2. […]

## CCCC(=O)[O-].[Na+] [sodium butyrate]
  Luciferase activity in 1000DJ-Luc cells versus 0DJ-Luc control cells (raw data): > 100 times
